Among the data in the supplement of paper PMC7238544 are transfection efficiency values, retold here.

Structures can show the parent of a compound that is named as a salt. ± gives the standard deviation of the averaged measurements. The list shows a part of the results. The data scatter; read single values as rough.

The experiment relates to hAMSC donor 2. Briefly: transfection efficiency (EGFP+ cells / Hoechst count) fold change vs vehicle control (ratio); hAMSC are human adipose-derived mesenchymal stem cells given an EGFP-luciferase plasmid by lipofection; higher = enhanced transfection. The note with it: priming compound concentration 0.2 µM.
For the compound `CN(CCOc1ccc(CC2SC(=O)NC2=O)cc1)c1ccccn1` (centres undefined) [Rosiglitazone maleate], the transfection efficiency was 1.02 ± 0.13. In the case of `C[C@](N)(Cc1ccc(O)cc1)C(=O)O` [alpha-Methyl-L-tyrosine], the transfection efficiency amounted to 1.46 ± 0.29.

As for `COc1cc(OC)c(C(=O)CCCN2CCCC2)c(OC)c1` [Buflomedil hydrochloride], the transfection efficiency was determined as 1.5 ± 0.26. In the case of `COCCOC(=O)C1=C(C)NC(C)=C(C(=O)OC(C)C)C1c1cccc([N+](=O)[O-])c1` (centres undefined) [Nimodipine], the transfection efficiency was determined as 1.19 ± 0.19. Regarding `O=C(CCCN1CC=C(n2c(=O)[nH]c3ccccc32)CC1)c1ccc(F)cc1` [Droperidol], the transfection efficiency is 1.03 ± 0.11. Then `CN1[C@@H]2CC[C@H]1C[C@@H](OC(=O)c1c[nH]c3ccccc13)C2` [Tropisetron hydrochloride], with 0.763 ± 0.07. Consider `CN1[C@@H](CC(=O)c2ccccc2)CCC[C@H]1C[C@H](O)c1ccccc1` [Lobeline hydrochloride], for which the transfection efficiency was determined as 1.33 ± 0.41. In the case of `CN(C)CCCC1(c2ccc(F)cc2)OCc2cc(C#N)ccc21` (centres undefined) [Citalopram hydrobromide], the transfection efficiency was 1.19 ± 0.28. Consider `CN(C)CCc1c[nH]c2ccc(Cn3cncn3)cc12` [Rizatriptan benzoate], for which the transfection efficiency was determined as 1.28 ± 0.36. For the compound `Nc1ncn([C@@H]2O[C@H](CO)[C@@H](O)[C@H]2O)c(=O)n1` [5-Azacytidine], the transfection efficiency worked out at 1.11 ± 0.062. For the compound `O=C(O)CCc1nc(-c2ccccc2)c(-c2ccccc2)o1` [Oxaprozin], the transfection efficiency stood at 1.32 ± 0.23.

For the compound `CN1CC(=O)N2[C@H](c3ccc4c(c3)OCO4)c3[nH]c4ccccc4c3C[C@@H]2C1=O` [Tadalafil], the transfection efficiency came out at 1.42 ± 0.16. Regarding `O=c1c(O[C@@H]2O[C@H](CO)[C@@H](O)[C@H](O)[C@H]2O)c(-c2ccc(O)c(O)c2)oc2cc(O)cc(O)c12` [Isoquercitrin], the transfection efficiency turned out to be 1.19 ± 0.018. As to `CN(C)[C@@H]1C(O)=C(C(N)=O)C(=O)[C@@]2(O)C(O)=C3C(=O)c4c(O)ccc(Cl)c4[C@@H](O)[C@H]3C[C@@H]12` [Demeclocycline], the transfection efficiency turned out to be 1.14 ± 0.42. Take `OCCN1CCN(CCCN2c3ccccc3Sc3ccc(C(F)(F)F)cc32)CC1` [Fluphenazine dihydrochloride]: the transfection efficiency turned out to be 1.34 ± 0.51. `CCN(CC)CCOc1ccc(C(=C(Cl)c2ccccc2)c2ccccc2)cc1` [Clomifene citrate]: the transfection efficiency was found to be 1.27 ± 0.17. For `N#Cc1ccc(C(c2ccc(C#N)cc2)n2cncn2)cc1` [Letrozole], the transfection efficiency came to 1.28 ± 0.35.

Turning to `COc1cc([C@@H]2c3cc4c(cc3[C@@H](O[C@@H]3O[C@@H]5CO[C@@H](C)O[C@H]5[C@H](O)[C@H]3O)[C@H]3COC(=O)[C@H]23)OCO4)cc(OC)c1O` [Etoposide], the transfection efficiency was 1.08 ± 0.27. Turning to `C[C@]12C[C@H](O)[C@H]3[C@@H](CCC4=CC(=O)CC[C@@]43C)[C@@H]1CC[C@@H]2C(=O)CO` [Corticosterone], the transfection efficiency came out at 1.3 ± 0.1. As to `CCN1CCCC1CNC(=O)c1cc(S(=O)(=O)CC)c(N)cc1OC` (centres undefined) [Amisulpride], the transfection efficiency amounted to 1.55 ± 0.19. Consider `CN(C)CC[C@@H](c1ccc(Br)cc1)c1ccccn1` [Dexbrompheniramine maleate], for which the transfection efficiency amounted to 0.883 ± 0.11. Take `CC1=C(C/C=C(\C)CCC[C@H](C)CCC[C@H](C)CCCC(C)C)C(=O)c2ccccc2C1=O` [Phylloquinone]: the transfection efficiency came to 1.21 ± 0.53.

With `C[C@H](CS)C(=O)N1CCC[C@H]1C(=O)O` [Captopril], the transfection efficiency turned out to be 1.55 ± 0.13. Turning to `c1ccc2c(CC3=NCCN3)cccc2c1` [Naphazoline hydrochloride], the transfection efficiency was found to be 1.09 ± 0.055. In the case of `C[C@H]1O[C@@H](O[C@H]2[C@@H](O)C[C@H](O[C@H]3[C@@H](O)C[C@H](O[C@H]4CC[C@@]5(C)[C@H](CC[C@@H]6[C@@H]5C[C@@H](O)[C@]5(C)[C@@H](C7=CC(=O)OC7)CC[C@]65O)C4)O[C@@H]3C)O[C@@H]2C)C[C@H](O)[C@@H]1O` [Digoxin], the transfection efficiency was found to be 1.15 ± 0.075. To `CC#C[C@]1(O)CC[C@H]2[C@@H]3CCC4=CC(=O)CCC4=C3[C@@H](c3ccc(N(C)C)cc3)C[C@@]21C` belongs 1.34 ± 0.19; to `COc1ccccc1N1CCN(CC(O)COc2cccc3ccccc23)CC1` (centres undefined) [Naftopidil], 1.11 ± 0.28. `CN1CCN(c2nc3cc(C(F)(F)F)ccc3n3cccc23)CC1`: the transfection efficiency turned out to be 1.02 ± 0.16. On to `CC(C)[C@H](N)C(=O)OCCOCn1cnc2c(=O)nc(N)[nH]c21` [Valaciclovir hydrochloride], for which the transfection efficiency worked out at 0.937 ± 0.049. With `O=c1[nH]cc(F)c(=O)[nH]1` [5-Fluorouracil], the transfection efficiency was found to be 1.29 ± 0.34.

In the case of `CC1(C)S[C@@H]2[C@H](NC(=O)[C@H](N)c3ccc(O)cc3)C(=O)N2[C@H]1C(=O)O` [Amoxicillin], the transfection efficiency was 1.21 ± 0.18. Turning to `CN1CCC[C@H]1c1cccnc1` [Nicotine], the transfection efficiency turned out to be 1.23 ± 0.35. With `CC1(C)O[C@@H]2[C@@H](CO[C@@]3(COS(N)(=O)=O)OC(C)(C)O[C@@H]23)O1` [Topiramate], the transfection efficiency was 1.66 ± 0.52.

In the case of `Nc1ncnc2c1ncn2[C@@H]1O[C@H](CO)C[C@@H]1O` [3'-Deoxydenosine], the transfection efficiency is 1.23 ± 0.41. In the case of `O=C1c2c(O)cc(O)cc2O[C@H](c2ccc(O)c(O)c2)[C@H]1O` (racemic) [Taxifolin-(+/-)], the transfection efficiency stood at 1.05 ± 0.041.

As for `O=C(c1ccccc1)c1ccc2n1CCC2C(=O)O` (centres undefined) [Ketorolac tromethamine], the transfection efficiency is 1.39 ± 0.2. With `CC(=O)N[C@H]1[C@H]([C@H](O)[C@H](O)CO)OC(C(=O)O)=C[C@@H]1NC(=N)N` [Zanamivir hydrate], the transfection efficiency came out at 1.43 ± 0.26. Turning to `CCOc1cc(CC(=O)N[C@@H](CC(C)C)c2ccccc2N2CCCCC2)ccc1C(=O)O` [Repaglinide], the transfection efficiency is 1.12 ± 0.28.

For `CCn1cc(C(=O)O)c(=O)c2cc(F)c(N3CCN(C)CC3)cc21` [Pefloxacin mesylate], the transfection efficiency stood at 1.15 ± 0.087.
